These are yes or no findings as the source states them, for the method shown. Some results given as binding are weak or reduced against the parent protein; the word gives no strength.
Tests used:
[1] = molecular target: eck receptor extracellular domain (eck-x), soluble, expressed in CHO cells (human) (UniProt P29317); assay: affinity chromatography on immobilized eck-x, SDS-PAGE
[2] = molecular target: eck receptor extracellular domain (eck-x), soluble, expressed in CHO cells (human) (UniProt P29317); assay: gel filtration fractions tested by BIAcore on immobilized eck-x

Protein sequences, listed by entry. Tags and fused reporters are not part of them. Lines headed by an entry give the natural chain unless they say otherwise; changes in a name come on top. Residues count along the entry.
UniProt P29317, residues 24-537: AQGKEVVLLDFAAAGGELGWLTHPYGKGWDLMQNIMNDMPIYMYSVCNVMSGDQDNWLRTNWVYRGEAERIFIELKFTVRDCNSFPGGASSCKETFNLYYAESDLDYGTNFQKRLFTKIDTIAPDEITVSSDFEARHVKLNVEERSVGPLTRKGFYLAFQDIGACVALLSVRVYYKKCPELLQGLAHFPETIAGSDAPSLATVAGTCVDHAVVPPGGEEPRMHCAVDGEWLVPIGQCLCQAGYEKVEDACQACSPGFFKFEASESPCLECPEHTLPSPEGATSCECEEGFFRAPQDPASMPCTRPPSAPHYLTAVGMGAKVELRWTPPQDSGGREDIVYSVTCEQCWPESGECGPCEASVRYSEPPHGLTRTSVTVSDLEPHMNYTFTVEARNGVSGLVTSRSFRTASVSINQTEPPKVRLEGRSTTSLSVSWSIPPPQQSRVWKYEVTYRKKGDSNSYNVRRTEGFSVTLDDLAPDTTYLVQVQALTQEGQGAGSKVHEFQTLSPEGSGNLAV
UniProt P20827: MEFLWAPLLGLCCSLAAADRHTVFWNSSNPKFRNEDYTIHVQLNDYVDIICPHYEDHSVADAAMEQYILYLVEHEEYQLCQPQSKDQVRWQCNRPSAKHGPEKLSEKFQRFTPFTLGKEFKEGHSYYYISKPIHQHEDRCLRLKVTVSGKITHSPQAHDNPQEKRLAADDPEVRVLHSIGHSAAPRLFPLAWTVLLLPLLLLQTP

- binding [1]: binds
- binding [2]: binds
Substance: eck receptor binding protein (EBP) purified from conditioned medium of HCT-8 or SK-BR-3 cells (from UniProt P20827 19-182) (ligand)

From patent US6479250 (Amgen, dated 2002)
